The values that follow come from the supplement of paper PMC11542785.

Where a name gives a salt, the structure may show the parent alone. This is one part of the list. Most values come without repeats; read them as rough. Square brackets hold non-standard residues; d marks the D form. Peptide text beside a SMILES is read from it. * marks the point of attachment. Sta = CC(C)C[C@H](N)[C@@H](O)CC(=O)O; Isovaleryl = CC(C)CC(=O)*

The experiment deals with Drosophila melanogaster DPAGT1 (Alg7) RNAi eye model. Nature of the experiment: eye size Z-score vs DMSO-treated DPAGT1 model flies; higher = larger eye (suppression of DPAGT1 phenotype). The conditions noted are these: 5 uM.

For `Cn1cc([S+](C)[O-])c(=O)c2ccc(F)cc21` (centres undefined) [Flosequinan], the “eye size Z-score” value was 0.51.

`C[C@H](O)C(=O)Nc1c(I)c(C(=O)NC(CO)CO)c(I)c(C(=O)NC(CO)CO)c1I` [Iopamidol]: the “eye size Z-score” value was 0.45.

Take `CC(C)CC(=O)N[C@H](C(=O)N[C@H](C(=O)N[C@@H](CC(C)C)[C@@H](O)CC(=O)N[C@@H](C)C(=O)N[C@@H](CC(C)C)[C@@H](O)CC(=O)O)C(C)C)C(C)C` [Pepstatin A] (Isovaleryl-VV[Sta]A[Sta]-OH): the “eye size Z-score” value came out at 1.11.

For `Oc1ccc(OCc2ccccc2)cc1` [Monobenzone], the “eye size Z-score” value is -0.48.

With `C[C@H]1C[C@H]2[C@@H]3CCC4=CC(=O)C=C[C@]4(C)[C@@]3(F)[C@@H](O)C[C@]2(C)[C@@]1(O)C(=O)CO` [Betamethasone], the “eye size Z-score” value was -0.3.

As for `CCCNC(C)(C)C(=O)Nc1ccccc1C` [Quatacaine], the “eye size Z-score” value came out at 0.65.

For `C=C1/C(=C\C=C2/CCC[C@]3(C)[C@@H]([C@H](C)/C=C/[C@@H](O)C4CC4)CC[C@@H]23)C[C@@H](O)C[C@@H]1O` [Calcipotriene], the “eye size Z-score” value is -0.33.

With `Cc1ccc(Cl)c(Nc2ccccc2C(=O)O)c1Cl` [Meclofenamic acid sodium salt monohydrate], the “eye size Z-score” value is -0.37.

Turning to `O=C(NCCO[N+](=O)[O-])c1cccnc1` [Nicorandil], the “eye size Z-score” value was 0.04.

`COC(=O)Nc1nc2ccc(SC(C)C)cc2[nH]1` [Methiazole]: the “eye size Z-score” value was determined as 0.36.

With `CN(C)CCOc1ccc(/C(=C(/CCCl)c2ccccc2)c2ccccc2)cc1` [Toremifene], the “eye size Z-score” value was -0.3.

On to `CCN1CCN(C(=O)N[C@@H](C(=O)N[C@@H]2C(=O)N3C(C(=O)O)=C(CSc4nnnn4C)CS[C@H]23)c2ccc(O)cc2)C(=O)C1=O` [Cefoperazone dihydrate], for which the “eye size Z-score” value is -2.27.

Consider `CC(NN)c1ccccc1` (centres undefined) [Mebanazine], for which the “eye size Z-score” value was 0.05.

On to `CC(C(=O)O)c1ccc(N2Cc3ccccc3C2=O)cc1` (centres undefined) [Indoprofen], for which the “eye size Z-score” value was 0.27.

Consider `CO[C@@]12[C@H](COC(N)=O)C3=C(C(=O)C(C)=C(N)C3=O)N1C[C@@H]1N[C@@H]12` [Mitomycin C], for which the “eye size Z-score” value is -0.79.

`CC1=Nc2ccc(Cl)cc2S(=O)(=O)N1` [Diazoxide]: the “eye size Z-score” value is -0.19.

For `CCn1nc(C(=O)O)c(=O)c2cc3c(cc21)OCO3` [Cinoxacin], the “eye size Z-score” value was -0.44.

On to `Cc1cc(/C=C/c2ccc3cc(N(C)C)ccc3[n+]2C)c(C)n1-c1ccccc1` [Pyrvinium pamoate], for which the “eye size Z-score” value was found to be 0.56.

With `COCCOC(=O)C1=C(C)NC(C)=C(C(=O)OC/C=C/c2ccccc2)C1c1cccc([N+](=O)[O-])c1` (centres undefined) [Cilnidipine], the “eye size Z-score” value is 0.92.

For `CCCCNc1ccc(C(=O)OCCOCCOCCOCCOCCOCCOCCOCCOCCOC)cc1` [Benzonatate], the “eye size Z-score” value was found to be 0.71.

`O=C(O)/C=C/c1ccc(Cn2ccnc2)cc1` [Ozagrel hydrochloride]: the “eye size Z-score” value came out at 0.34.

On to `CCCc1nc(C)c2c(=O)nc(-c3cc(S(=O)(=O)N4CCN(CC)CC4)ccc3OCC)[nH]n12` [Vardenafil], for which the “eye size Z-score” value is -0.55.

As for `O=C(O)COC(=O)Cc1ccccc1Nc1c(Cl)cccc1Cl` [Aceclofenac], the “eye size Z-score” value was 1.08.

Consider `Cc1cnc(NC(=O)C2=C(O)c3ccccc3S(=O)(=O)N2C)s1` [Meloxicam], for which, for the setting “female”, the “eye size Z-score” value worked out at 1.25.

With `Cc1nnc(NS(=O)(=O)c2ccc(N)cc2)s1` [Sulfamethizole], the “eye size Z-score” value was -0.38.

As for `CCN1CCC[C@H]1CNC(=O)c1c(OC)ccc(Br)c1OC` [Remoxipride hydrochloride], the “eye size Z-score” value is -0.47.

`CCN1CCN(c2cc3c(cc2F)c(=O)c(C(=O)O)cn3C2CC2)CC1` [Enrofloxacin]: the “eye size Z-score” value was -0.28.

On to `COc1c2occc2c(OC)c2c(=O)cc(C)oc12` [Khellin], for which the “eye size Z-score” value was -0.05.

As for `Nc1cc(C(Cl)=C(Cl)Cl)c(S(N)(=O)=O)cc1S(N)(=O)=O` [Clorsulon], the “eye size Z-score” value is -0.02.

On to `CC[C@H](C)C(=O)O[C@H]1CCC=C2C=C[C@H](C)[C@H](CC[C@@H]3C[C@@H](O)CC(=O)O3)[C@H]21` [Mevastatin], for which the “eye size Z-score” value came out at 0.84.

For `CC(=O)c1cc2cccc(OCC(O)CNC(C)C)c2o1` (centres undefined) [Befunolol], the “eye size Z-score” value is 0.74.

On to `CN1CCN(c2c(F)cc3c(=O)c(C(=O)O)cn(CCF)c3c2F)CC1` [Fleroxacin], for which the “eye size Z-score” value came out at 0.99.

Take `C[C@H](CCC(=O)O)[C@H]1CC[C@H]2[C@@H]3[C@H](O)C[C@@H]4C[C@H](O)CC[C@]4(C)[C@H]3CC[C@]12C` [Chenodiol]: the “eye size Z-score” value amounted to 0.28.

Regarding `NNc1nncc2ccccc12` [Hydralazine hydrochloride], the “eye size Z-score” value was determined as 0.64.

Consider `CC(=O)OCC(CCn1cnc2cnc(N)nc21)COC(C)=O` [Famciclovir], for which the “eye size Z-score” value was determined as 0.17.

On to `CN1CCN(CCCN2c3ccccc3Sc3ccc(Cl)cc32)CC1` [Prochlorperazine dimaleate], for which the “eye size Z-score” value was 1.86.

Take `Cc1nc(=O)c2cc(CN(C)c3ccc(C(=O)N[C@@H](CCC(=O)O)C(=O)O)s3)ccc2[nH]1` [Raltitrexed]: the “eye size Z-score” value is -0.36.

As to `CC(/C=C1\SC(=S)N(CC(=O)O)C1=O)=C\c1ccccc1` [Epalrestat], the “eye size Z-score” value turned out to be 0.03.

For `O=c1oc2ccccc2c(O)c1Cc1c(O)c2ccccc2oc1=O` [Dicumarol], the “eye size Z-score” value was -0.05.

For the compound `CC(C)NC[C@@H](O)COc1cccc2ccccc12` [(R) Propranolol hydrochloride], the “eye size Z-score” value is 0.07.

In the case of `CCN(CC)CCc1nc(-c2ccccc2)no1` [Oxolamine citrate salt], the “eye size Z-score” value is -0.06.

Take `CNCC(O)c1ccc(OC(=O)C(C)(C)C)c(OC(=O)C(C)(C)C)c1` (centres undefined) [Dipivefrin hydrochloride]: the “eye size Z-score” value came out at 0.03.

In the case of `CC(C)NCC(O)c1ccc(O)c(O)c1` (single isomer, unassigned; (+)) [(+) Isoproterenol-(+)-bitartrate salt], the “eye size Z-score” value is -0.11.

`Cc1c(N(C)CS(=O)(=O)O)c(=O)n(-c2ccccc2)n1C` [Dipyrone sodium salt]: the “eye size Z-score” value is 0.49.

`CC(NCCC(c1ccccc1)c1ccccc1)c1ccccc1` (centres undefined) [Fendiline hydrochloride]: the “eye size Z-score” value was -0.24.

Turning to `O=c1[nH]c(=O)n(C2CCCO2)cc1F` (centres undefined) [Tegafur], the “eye size Z-score” value was found to be 0.25.

As to `Nc1nc2n[nH]nc2c(=O)[nH]1` [Azaguanine-8], the “eye size Z-score” value was -0.15.

As for `CN(C)c1nc(N(C)C)nc(N(C)C)n1` [Altretamine], the “eye size Z-score” value came to 0.23.

`CC(C)NCC(O)c1ccc2ccccc2c1` (centres undefined) [Pronethalol hydrochloride]: the “eye size Z-score” value is -0.25.
